This passage reports binding results from paper PMC10345115.

The chains behind the UniProt entries cited, without tags or fusion partners.
UniProt Q92731: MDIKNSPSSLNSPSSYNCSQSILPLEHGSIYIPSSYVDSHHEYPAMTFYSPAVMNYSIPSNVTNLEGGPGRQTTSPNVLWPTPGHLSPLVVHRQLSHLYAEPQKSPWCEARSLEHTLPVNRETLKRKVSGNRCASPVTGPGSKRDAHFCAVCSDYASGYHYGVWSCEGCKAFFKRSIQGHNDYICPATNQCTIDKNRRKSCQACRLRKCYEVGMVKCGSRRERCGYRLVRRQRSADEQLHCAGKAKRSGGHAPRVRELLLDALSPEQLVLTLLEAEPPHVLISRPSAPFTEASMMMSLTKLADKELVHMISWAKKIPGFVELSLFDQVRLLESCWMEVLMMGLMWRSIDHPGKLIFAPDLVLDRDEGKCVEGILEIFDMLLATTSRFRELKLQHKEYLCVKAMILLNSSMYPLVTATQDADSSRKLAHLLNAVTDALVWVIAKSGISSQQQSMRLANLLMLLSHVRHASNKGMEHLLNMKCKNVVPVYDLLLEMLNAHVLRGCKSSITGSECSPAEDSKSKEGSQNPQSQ

In one assay the target is T1, Flag-WFDC3 (UniProt Q8IUB2).
T1 sequence: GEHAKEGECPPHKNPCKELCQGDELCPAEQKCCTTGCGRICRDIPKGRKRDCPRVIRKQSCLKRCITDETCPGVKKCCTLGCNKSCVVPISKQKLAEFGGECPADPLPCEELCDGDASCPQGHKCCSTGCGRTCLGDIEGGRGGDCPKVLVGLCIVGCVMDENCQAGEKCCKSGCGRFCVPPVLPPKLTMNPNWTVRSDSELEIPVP
Briefly: co-IP; 500 µg total protein from transfected cells; immunoprecipitation with 1 µg c-Myc antibody or Flag antibody at 4 °C overnight, Protein A Sepharose beads; western blot. On the technique in general: A western blot detects proteins with antibodies after separation by electrophoresis.

The target in another assay is T2, GST-WFDC3 (UniProt Q8IUB2).
T2 sequence: T1 sequence
The experiment in a line: pull-down; in vitro GST pull-down with bacterially expressed GST/His-fused proteins; GST-WFDC3 or GST as bait.

These are yes or no findings as the source states them, for the method shown. In cells and extracts the contact can be indirect. Some entries that bind do so weakly or less than the wild type. Sequences can lack the tags named with a protein.

Consider Myc-ERβ (from UniProt Q92731 1-530), for which the binding result with Flag-WFDC3 is “binds”.
As for “His-tagged ERβ (from UniProt Q92731 1-530)”, the binding result in the assay with GST-WFDC3 is given as “binds”.
